Data published in the supplement of paper PMC11006884.
The list shows a part of the results, in another mix than the full data.

Amino acid sequences for entries named in this document (tags omitted). A change or cut given only in a name is not applied to a line headed by its entry.
UniProt Q9NU22: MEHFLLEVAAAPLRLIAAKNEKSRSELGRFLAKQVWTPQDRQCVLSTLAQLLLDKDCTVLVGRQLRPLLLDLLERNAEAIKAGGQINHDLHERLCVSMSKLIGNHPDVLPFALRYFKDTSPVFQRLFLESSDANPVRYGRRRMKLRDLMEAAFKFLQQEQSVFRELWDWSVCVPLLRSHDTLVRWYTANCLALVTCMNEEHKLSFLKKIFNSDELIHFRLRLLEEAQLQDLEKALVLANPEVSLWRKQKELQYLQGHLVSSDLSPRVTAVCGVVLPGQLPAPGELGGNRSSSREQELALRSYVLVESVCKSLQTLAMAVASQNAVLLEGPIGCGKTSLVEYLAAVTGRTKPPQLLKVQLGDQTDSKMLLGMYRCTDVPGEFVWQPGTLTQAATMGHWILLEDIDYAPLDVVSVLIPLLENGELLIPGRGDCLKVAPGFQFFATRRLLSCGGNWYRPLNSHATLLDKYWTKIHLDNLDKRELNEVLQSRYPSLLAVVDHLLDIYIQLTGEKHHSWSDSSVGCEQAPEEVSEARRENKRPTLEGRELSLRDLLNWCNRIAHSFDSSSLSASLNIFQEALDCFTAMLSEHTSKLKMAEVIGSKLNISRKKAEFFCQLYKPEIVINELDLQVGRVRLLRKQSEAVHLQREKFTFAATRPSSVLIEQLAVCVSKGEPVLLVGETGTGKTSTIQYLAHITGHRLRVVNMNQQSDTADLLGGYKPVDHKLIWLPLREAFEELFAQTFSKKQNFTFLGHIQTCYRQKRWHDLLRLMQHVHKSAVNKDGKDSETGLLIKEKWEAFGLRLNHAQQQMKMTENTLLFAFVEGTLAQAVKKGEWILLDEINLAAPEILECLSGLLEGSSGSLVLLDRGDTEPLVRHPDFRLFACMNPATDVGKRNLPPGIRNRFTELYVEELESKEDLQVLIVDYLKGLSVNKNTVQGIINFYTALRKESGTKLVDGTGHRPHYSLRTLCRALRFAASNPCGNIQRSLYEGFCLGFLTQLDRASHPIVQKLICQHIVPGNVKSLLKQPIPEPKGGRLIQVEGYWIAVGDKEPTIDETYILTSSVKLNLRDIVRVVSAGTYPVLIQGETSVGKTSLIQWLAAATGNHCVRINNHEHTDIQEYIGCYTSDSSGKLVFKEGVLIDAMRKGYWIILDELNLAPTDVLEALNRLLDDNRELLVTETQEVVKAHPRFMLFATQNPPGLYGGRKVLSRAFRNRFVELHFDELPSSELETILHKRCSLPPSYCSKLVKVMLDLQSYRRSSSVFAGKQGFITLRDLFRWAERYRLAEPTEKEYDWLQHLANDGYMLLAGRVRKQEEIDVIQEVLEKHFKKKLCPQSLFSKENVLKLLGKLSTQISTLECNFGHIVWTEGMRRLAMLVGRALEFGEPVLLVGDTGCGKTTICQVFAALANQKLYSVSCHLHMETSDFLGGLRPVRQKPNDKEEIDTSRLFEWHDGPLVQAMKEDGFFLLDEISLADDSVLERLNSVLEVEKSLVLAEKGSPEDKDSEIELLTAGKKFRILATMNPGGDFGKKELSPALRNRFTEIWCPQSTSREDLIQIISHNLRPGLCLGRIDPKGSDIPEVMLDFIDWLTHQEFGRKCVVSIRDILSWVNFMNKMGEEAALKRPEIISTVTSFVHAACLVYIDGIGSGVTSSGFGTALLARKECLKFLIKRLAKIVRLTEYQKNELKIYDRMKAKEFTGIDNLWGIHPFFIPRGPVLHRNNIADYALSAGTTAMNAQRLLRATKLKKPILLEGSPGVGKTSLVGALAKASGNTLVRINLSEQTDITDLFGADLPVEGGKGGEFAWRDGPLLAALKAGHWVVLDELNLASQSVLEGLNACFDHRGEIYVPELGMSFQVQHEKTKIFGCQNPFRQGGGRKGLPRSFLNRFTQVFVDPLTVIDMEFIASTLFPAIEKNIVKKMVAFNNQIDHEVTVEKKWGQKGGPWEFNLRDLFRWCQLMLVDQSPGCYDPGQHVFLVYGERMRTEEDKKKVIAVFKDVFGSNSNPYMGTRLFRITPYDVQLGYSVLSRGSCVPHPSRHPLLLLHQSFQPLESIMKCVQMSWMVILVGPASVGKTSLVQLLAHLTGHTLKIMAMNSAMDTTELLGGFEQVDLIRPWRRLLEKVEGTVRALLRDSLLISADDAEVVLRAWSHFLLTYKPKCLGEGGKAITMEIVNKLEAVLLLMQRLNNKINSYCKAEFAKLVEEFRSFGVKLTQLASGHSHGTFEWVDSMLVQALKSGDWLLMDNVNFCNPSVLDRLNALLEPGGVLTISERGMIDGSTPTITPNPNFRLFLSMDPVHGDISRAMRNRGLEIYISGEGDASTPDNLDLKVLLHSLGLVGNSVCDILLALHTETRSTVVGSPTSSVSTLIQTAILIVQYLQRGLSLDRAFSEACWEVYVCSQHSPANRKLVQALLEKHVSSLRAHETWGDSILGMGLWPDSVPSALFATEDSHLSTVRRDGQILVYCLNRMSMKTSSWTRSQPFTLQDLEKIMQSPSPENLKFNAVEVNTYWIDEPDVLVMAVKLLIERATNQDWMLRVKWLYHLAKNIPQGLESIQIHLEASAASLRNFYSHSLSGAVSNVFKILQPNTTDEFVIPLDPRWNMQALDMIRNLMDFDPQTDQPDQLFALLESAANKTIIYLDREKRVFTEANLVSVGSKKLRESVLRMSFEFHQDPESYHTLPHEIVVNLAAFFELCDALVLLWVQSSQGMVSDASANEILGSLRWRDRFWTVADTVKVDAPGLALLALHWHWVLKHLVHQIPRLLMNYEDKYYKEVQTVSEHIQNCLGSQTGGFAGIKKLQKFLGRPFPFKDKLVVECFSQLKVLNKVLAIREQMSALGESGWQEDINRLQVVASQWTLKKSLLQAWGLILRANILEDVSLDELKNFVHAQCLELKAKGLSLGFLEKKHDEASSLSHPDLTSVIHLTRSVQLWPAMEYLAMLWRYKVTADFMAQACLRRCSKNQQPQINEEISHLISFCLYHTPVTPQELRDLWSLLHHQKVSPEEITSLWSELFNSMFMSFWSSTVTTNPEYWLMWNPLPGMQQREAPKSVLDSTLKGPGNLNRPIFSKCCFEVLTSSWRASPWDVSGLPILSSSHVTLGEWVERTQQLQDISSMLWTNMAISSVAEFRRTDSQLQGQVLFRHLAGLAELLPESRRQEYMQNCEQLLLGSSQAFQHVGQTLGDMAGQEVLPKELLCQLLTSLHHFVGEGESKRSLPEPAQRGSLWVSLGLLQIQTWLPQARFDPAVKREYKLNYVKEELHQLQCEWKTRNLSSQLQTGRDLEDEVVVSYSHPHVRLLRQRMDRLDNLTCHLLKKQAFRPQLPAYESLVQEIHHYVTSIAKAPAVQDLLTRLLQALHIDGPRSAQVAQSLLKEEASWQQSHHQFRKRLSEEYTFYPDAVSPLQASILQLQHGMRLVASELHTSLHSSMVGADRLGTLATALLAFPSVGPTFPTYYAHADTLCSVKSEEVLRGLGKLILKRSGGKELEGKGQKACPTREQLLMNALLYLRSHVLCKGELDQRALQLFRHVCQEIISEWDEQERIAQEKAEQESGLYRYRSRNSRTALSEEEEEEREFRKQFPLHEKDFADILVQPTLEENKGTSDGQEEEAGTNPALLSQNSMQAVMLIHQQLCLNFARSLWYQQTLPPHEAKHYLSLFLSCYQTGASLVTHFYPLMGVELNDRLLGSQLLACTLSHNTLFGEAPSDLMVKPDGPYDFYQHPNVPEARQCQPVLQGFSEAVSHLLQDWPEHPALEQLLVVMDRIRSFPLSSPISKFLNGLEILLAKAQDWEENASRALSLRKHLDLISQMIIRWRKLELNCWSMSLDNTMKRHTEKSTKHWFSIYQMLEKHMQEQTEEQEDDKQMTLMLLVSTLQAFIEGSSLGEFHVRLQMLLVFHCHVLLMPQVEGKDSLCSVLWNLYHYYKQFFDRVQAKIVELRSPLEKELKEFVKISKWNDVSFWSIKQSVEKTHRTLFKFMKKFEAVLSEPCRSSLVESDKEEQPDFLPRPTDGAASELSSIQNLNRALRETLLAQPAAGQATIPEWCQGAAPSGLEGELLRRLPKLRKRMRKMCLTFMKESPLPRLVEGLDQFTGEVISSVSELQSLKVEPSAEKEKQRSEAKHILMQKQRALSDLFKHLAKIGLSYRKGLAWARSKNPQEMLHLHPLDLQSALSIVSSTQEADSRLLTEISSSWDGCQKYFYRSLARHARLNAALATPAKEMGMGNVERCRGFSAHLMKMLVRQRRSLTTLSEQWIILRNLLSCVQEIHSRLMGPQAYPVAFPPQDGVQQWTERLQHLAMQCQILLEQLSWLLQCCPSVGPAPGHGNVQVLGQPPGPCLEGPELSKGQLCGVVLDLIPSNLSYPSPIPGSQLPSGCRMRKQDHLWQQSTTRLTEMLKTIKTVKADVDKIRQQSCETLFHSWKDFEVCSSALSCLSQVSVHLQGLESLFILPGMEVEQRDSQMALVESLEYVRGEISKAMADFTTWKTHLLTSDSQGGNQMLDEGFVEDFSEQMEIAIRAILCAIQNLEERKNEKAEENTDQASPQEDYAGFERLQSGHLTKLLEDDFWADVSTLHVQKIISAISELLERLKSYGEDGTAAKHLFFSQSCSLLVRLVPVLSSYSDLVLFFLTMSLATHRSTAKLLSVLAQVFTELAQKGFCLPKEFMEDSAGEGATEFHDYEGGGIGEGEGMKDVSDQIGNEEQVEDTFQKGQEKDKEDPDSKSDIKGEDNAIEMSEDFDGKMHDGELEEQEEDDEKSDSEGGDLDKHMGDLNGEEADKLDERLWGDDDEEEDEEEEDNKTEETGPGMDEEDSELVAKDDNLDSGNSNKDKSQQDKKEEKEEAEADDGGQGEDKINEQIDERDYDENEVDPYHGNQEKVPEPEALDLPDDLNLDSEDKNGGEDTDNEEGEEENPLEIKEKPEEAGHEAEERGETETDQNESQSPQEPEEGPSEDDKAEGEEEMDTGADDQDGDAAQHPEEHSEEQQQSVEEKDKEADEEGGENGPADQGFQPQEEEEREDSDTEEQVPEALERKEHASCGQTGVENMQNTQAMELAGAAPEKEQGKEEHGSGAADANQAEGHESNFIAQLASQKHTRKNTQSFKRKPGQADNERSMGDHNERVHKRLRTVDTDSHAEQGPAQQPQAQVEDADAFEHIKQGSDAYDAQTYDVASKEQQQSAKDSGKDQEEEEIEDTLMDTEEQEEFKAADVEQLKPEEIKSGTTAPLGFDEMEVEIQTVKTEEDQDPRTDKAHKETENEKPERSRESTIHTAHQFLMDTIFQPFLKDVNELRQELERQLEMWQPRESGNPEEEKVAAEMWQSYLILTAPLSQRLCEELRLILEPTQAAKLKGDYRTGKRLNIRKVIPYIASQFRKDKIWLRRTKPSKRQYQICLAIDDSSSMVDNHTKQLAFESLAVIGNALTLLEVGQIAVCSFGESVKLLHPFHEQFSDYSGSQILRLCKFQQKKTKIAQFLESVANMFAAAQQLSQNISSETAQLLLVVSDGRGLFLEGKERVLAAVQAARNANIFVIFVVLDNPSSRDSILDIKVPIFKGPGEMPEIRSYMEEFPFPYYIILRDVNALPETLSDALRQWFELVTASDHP
UniProt Q9H993: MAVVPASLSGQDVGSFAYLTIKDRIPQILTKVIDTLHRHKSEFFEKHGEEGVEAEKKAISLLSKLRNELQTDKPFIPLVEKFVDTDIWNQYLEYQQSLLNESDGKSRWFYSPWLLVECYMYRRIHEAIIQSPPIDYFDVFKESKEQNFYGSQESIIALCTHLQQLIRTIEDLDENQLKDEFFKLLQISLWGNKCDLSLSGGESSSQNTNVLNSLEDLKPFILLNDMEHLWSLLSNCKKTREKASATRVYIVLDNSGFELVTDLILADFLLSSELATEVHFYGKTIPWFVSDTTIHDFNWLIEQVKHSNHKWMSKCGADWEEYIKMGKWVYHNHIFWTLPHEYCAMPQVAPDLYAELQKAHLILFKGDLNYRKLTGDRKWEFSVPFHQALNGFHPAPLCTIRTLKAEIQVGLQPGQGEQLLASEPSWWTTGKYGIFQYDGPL
UniProt Q9NRM2: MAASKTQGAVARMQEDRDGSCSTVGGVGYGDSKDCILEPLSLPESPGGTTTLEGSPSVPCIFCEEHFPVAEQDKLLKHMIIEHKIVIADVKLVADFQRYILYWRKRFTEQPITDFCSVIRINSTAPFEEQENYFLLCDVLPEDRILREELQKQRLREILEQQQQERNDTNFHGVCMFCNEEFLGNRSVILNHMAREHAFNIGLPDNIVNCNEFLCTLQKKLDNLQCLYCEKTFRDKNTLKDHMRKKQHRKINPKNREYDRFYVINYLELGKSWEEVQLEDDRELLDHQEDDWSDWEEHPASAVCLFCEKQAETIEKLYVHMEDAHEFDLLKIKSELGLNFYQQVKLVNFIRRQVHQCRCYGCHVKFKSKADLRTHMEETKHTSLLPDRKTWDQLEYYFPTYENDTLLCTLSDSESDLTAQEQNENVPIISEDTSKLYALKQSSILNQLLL

compound: COC(=O)C#Cc1ccccc1 [methyl 3-phenylpropiolate]; experiment: log2 ratio of iodoacetamide-alkyne labeling of the cysteine site, DMSO over compound (competition); higher = stronger covalent engagement of the cysteine by the compound, active = 1 or more; conditions: 500 µM; treatment time 1 h; system: HEK293T cell lysate
In short: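 Electrophile (500 µM) or vehicle was added to HEK293T lysate (2 mg/mL) for 1 h at ambient temperature before iodoacetamide alkyne labelling (1 h) and click coupling to sCIP-TMT reagents. After pooling, overnight trypsin digestion at 37 °C, streptavidin enrichment and acid elution, peptides were measured by Orbitrap Eclipse LC-MS/MS with FAIMS and quantified in FragPipe. Each cysteine's log2 competition ratio compares mean control-channel with mean compound-channel reporter intensity, control over compound. Data came from duplicate channels across three replicates, excluding cysteines quantified in only one replicate.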

log2 ratio of iodoacetamide-alkyne labeling, inactive:
EPB41L5 C727 (UniProt Q9HCM4) 0.311
MDN1 C3492 (UniProt Q9NU22) 0.35
ACBD3 C129 (UniProt Q9H3P7) 0.643
NANS C8 (UniProt Q9NR45) 0.0794
PHAX C51 (UniProt Q9H814) 0.659
MBNL1 C27 (UniProt Q9NR56) 0.203
UniProt Q9H7C9_C122 0.113
XPO5 C736 (UniProt Q9HAV4) 0.176
EXOSC3 C184 (UniProt Q9NQT5) 0.41
UniProt Q9H993_C398 -0.156
KIF15 C862 (UniProt Q9NS87) 0.141
ZNF277 C137 (UniProt Q9NRM2) 0.0277
HELLS C169 (UniProt Q9NRZ9) 0.37
INCENP C163 (UniProt Q9NQS7) 0.179
ZNF106 C1069 (UniProt Q9H2Y7) 0.3
ATP13A1 C336 (UniProt Q9HD20) 0.126
MED4 C162 (UniProt Q9NPJ6) 0.318
SARS2 C64 (UniProt Q9NP81) 0.315
DIAPH3 C868 (UniProt Q9NSV4) 0.0696
FARSB C362 (UniProt Q9NSD9) 0.414
FARSB C548 (UniProt Q9NSD9) -0.00808
UNC45A C503 (UniProt Q9H3U1) 0.106
TM9SF3 C428 (UniProt Q9HD45) -0.0181
MDN1 C172 (UniProt Q9NU22) 0.0689
WDR55 C306 (UniProt Q9H6Y2) 0.187
LUC7L C59 (UniProt Q9NQ29) 0.0632
EIF4ENIF1 C767 (UniProt Q9NRA8) 0.377
XPO5 C706 (UniProt Q9HAV4) 0.381
EHMT1 C276 (UniProt Q9H9B1) -0.379
ISYNA1 C380 (UniProt Q9NPH2) 0.537
PPA2 C302 (UniProt Q9H2U2) -0.114
DDX31 C286 (UniProt Q9H8H2) -0.0815
YTHDC2 C1265 (UniProt Q9H6S0) 0.697
C17orf75 C288 (UniProt Q9HAS0) 0.43
TFB2M C383 (UniProt Q9H5Q4) 0.181
LUC7L C44 (UniProt Q9NQ29) 0.236
DMAP1 C199 (UniProt Q9NPF5) 0.00847

Fetched one by one from above, two records:
log2 ratio of iodoacetamide-alkyne labeling, inactive:
MED4 C162 (UniProt Q9NPJ6) 0.318
ZNF277 C137 (UniProt Q9NRM2) 0.0277
